# Measured values from the supplement of paper PMC8728848.
# The other results are listed elsewhere or left out.
# What was measured:
# Test in all cases: glycan array binding signal (z-score within array); higher = stronger binding
# Conditions in all cases: glycan notation: IUPAC condensed, linker removed
# [1] = biological target: Neu5Ac(a2-6)Gal(b1-4)GlcNAc(b1-2)Man(a1-3)[Man(a1-6)]Man(b1-4)GlcNAc(b1-4)GlcNAc
# Procedure, shortened: (§1)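 The Consortium for Functional Glycomics database supplied 3228 glycan arrays, of which those lacking an available protein sequence were dropped. The binding signal, a within-array Z-score, was averaged across arrays of the same protein sequence and across linkers. Negative scores can be read as non-binding.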
# [2] = biological target: Neu5Ac(a2-6)Gal(b1-4)GlcNAc(b1-2)Man(a1-3)[Neu5Ac(a2-6)Gal(b1-4)GlcNAc(b1-2)Man(a1-6)]Man(b1-4)GlcNAc(b1-4)GlcNAc
# Procedure, shortened: as §1
# [3] = biological target: Neu5Ac(a2-6)Gal(b1-4)GlcNAc(b1-2)Man(a1-3)[Neu5Ac(a2-6)Gal(b1-4)GlcNAc(b1-2)Man(a1-6)]Man(b1-4)GlcNAc(b1-4)[Fuc(a1-6)]GlcNAc
# Procedure, shortened: as §1
# [4] = biological target: Neu5Ac(a2-6)Gal(b1-4)GlcNAc(b1-2)Man(a1-6)Man(b1-4)GlcNAc(b1-4)GlcNAc
# Procedure, shortened: as §1
# [5] = biological target: Neu5Ac(a2-6)Gal(b1-4)GlcNAc(b1-2)Man(a1-6)[Gal(b1-4)GlcNAc(b1-2)Man(a1-3)]Man(b1-4)GlcNAc(b1-4)GlcNAc
# Procedure, shortened: as §1
# [6] = biological target: Neu5Ac(a2-6)Gal(b1-4)GlcNAc(b1-2)Man(a1-6)[GlcNAc(b1-2)Man(a1-3)]Man(b1-4)GlcNAc(b1-4)GlcNAc
# Procedure, shortened: as §1
# [7] = biological target: Neu5Ac(a2-6)Gal(b1-4)GlcNAc(b1-2)Man(a1-6)[Man(a1-3)]Man(b1-4)GlcNAc(b1-4)GlcNAc
# Procedure, shortened: as §1
# [8] = biological target: Neu5Ac(a2-6)Gal(b1-4)GlcNAc(b1-3)Gal(b1-3)GlcNAc
# Procedure, shortened: as §1
# [9] = biological target: Neu5Ac(a2-6)Gal(b1-4)GlcNAc(b1-3)Gal(b1-4)GlcNAc
# Procedure, shortened: as §1
# [10] = biological target: Neu5Ac(a2-6)Gal(b1-4)GlcNAc(b1-3)Gal(b1-4)GlcNAc(b1-3)Gal(b1-4)GlcNAc
# Procedure, shortened: as §1
# [11] = biological target: Neu5Ac(a2-6)Gal(b1-4)GlcNAc(b1-3)Gal(b1-4)[Fuc(a1-3)]GlcNAc(b1-3)Gal(b1-4)[Fuc(a1-3)]GlcNAc
# Procedure, shortened: as §1
# [12] = biological target: Neu5Ac(a2-6)Gal(b1-4)GlcNAc(b1-3)GalNAc
# Procedure, shortened: as §1
# [13] = biological target: Neu5Ac(a2-6)Gal(b1-4)GlcNAc(b1-3)[Neu5Ac(a2-6)Gal(b1-4)GlcNAc(b1-6)]GalNAc
# Procedure, shortened: as §1
# [14] = biological target: Neu5Ac(a2-6)Gal(b1-4)GlcNAc(b1-6)GalNAc
# Procedure, shortened: as §1
# [15] = biological target: Neu5Ac(a2-6)Gal(b1-4)GlcNAc(b1-6)[Gal(b1-3)GlcNAc(b1-3)]Gal(b1-4)Glc
# Procedure, shortened: as §1
# [16] = biological target: Neu5Ac(a2-6)Gal(b1-4)GlcNAc6S
# Procedure, shortened: as §1
# [17] = biological target: Neu5Ac(a2-6)GalNAc
# Procedure, shortened: as §1
# [18] = biological target: Neu5Ac(a2-6)GalNAc(b1-4)GlcNAc
# Procedure, shortened: as §1
# [19] = biological target: Neu5Ac(a2-6)GalNAc(b1-4)GlcNAc6S
# Procedure, shortened: as §1
# [20] = biological target: Neu5Ac(a2-6)GlcNAc(b1-4)GlcNAc
# Procedure, shortened: as §1
# [21] = biological target: Neu5Ac(a2-6)GlcNAc(b1-4)GlcNAc(b1-4)GlcNAc
# Procedure, shortened: as §1
# [22] = biological target: Neu5Ac(a2-8)Neu5Ac
# Procedure, shortened: as §1
# [23] = biological target: Neu5Ac(a2-8)Neu5Ac(a2-3)Gal(b1-3)GalNAc(b1-4)[Neu5Ac(a2-8)Neu5Ac(a2-3)]Gal(b1-4)Glc
# Procedure, shortened: as §1
# [24] = biological target: Neu5Ac(a2-8)Neu5Ac(a2-3)Gal(b1-4)Glc
# Procedure, shortened: as §1
# [25] = biological target: Neu5Ac(a2-8)Neu5Ac(a2-3)[Gal(b1-3)GalNAc(b1-4)]Gal(b1-4)Glc
# Procedure, shortened: as §1
# [26] = biological target: Neu5Ac(a2-8)Neu5Ac(a2-3)[GalNAc(b1-4)]Gal(b1-4)Glc
# Procedure, shortened: as §1
# [27] = biological target: Neu5Ac(a2-8)Neu5Ac(a2-8)Neu5Ac
# Procedure, shortened: as §1
# [28] = biological target: Neu5Ac(a2-8)Neu5Ac(a2-8)Neu5Ac(a2-3)Gal(b1-4)Glc
# Procedure, shortened: as §1
# [29] = biological target: Neu5Ac(a2-8)Neu5Ac(a2-8)Neu5Ac(a2-3)[GalNAc(b1-4)]Gal(b1-4)Glc
# Procedure, shortened: as §1
# [30] = biological target: Neu5Ac(a2-8)Neu5Ac(a2-8)Neu5Ac(a2-8)Neu5Ac(a2-3)[GalNAc(b1-4)]Gal(b1-4)Glc
# Procedure, shortened: as §1
# [31] = biological target: Neu5Ac(b2-6)Gal(b1-4)GlcNAc
# Procedure, shortened: as §1
# [32] = biological target: Neu5Ac(b2-6)GalNAc
# Procedure, shortened: as §1
# [33] = biological target: Neu5Ac9Ac(a2-3)Gal(b1-3)GlcNAc
# Procedure, shortened: as §1
# [34] = biological target: Neu5Ac9Ac(a2-3)Gal(b1-4)GlcNAc
# Procedure, shortened: as §1
# [35] = biological target: Neu5Ac9Ac(a2-6)Gal(b1-4)GlcNAc
# Procedure, shortened: as §1
# [36] = biological target: Neu5Gc(a2-3)Gal(b1-3)GlcNAc
# Procedure, shortened: as §1
# [37] = biological target: Neu5Gc(a2-3)Gal(b1-3)[Fuc(a1-4)]GlcNAc
# Procedure, shortened: as §1
# [38] = biological target: Neu5Gc(a2-3)Gal(b1-4)Glc
# Procedure, shortened: as §1
# [39] = biological target: Neu5Gc(a2-3)Gal(b1-4)GlcNAc
# Procedure, shortened: as §1
# [40] = biological target: Neu5Gc(a2-3)Gal(b1-4)[Fuc(a1-3)]GlcNAc
# Procedure, shortened: as §1
# [41] = biological target: Neu5Gc(a2-6)Gal(b1-4)GlcNAc
# Procedure, shortened: as §1
# [42] = biological target: Neu5Gc(a2-6)GalNAc
# Procedure, shortened: as §1
# [43] = biological target: Neu5Gc(b2-6)Gal(b1-4)GlcNAc
# Procedure, shortened: as §1
binder,measurement,setting,value
CALR truncated at D342 (Homo sapiens) (protein) EPAVYFKEQFLDGDGWTSRWIESKHKSDFGKFVLSSGKFYGDEEKDKGLQTSQDARFYALSASFEPFSNKGQTLVVQFTVKHEQNIDCGGGYVKLFPNSLDQTDMHGDSEYNIMFGPDICGPGTKKVHVIFNYKGKNVLINKDIRCKDDEFTHLYTLIVRPDNTYEVKIDNSQVESGSLEDDWDFLPPKKIKDPDASKPEDWDERAKIDDPTDSKPEDWDKPEHIPDPDAKKPEDWDEEMDGEWEPPVIQNPEYKGEWKPRQIDNPDYKGTWIHPEIDNPEYSPDPSIYAYDNFGVLGLDLWQVKSGTIFDNFLITNDEAYAEEFGNETWGVTKAAEKQMKD,glycan array binding signal (z-score),[1],-1.83
same,glycan array binding signal (z-score),[2],0.126
same,glycan array binding signal (z-score),[3],0.642
same,glycan array binding signal (z-score),[4],-1.06
same,glycan array binding signal (z-score),[5],3.22
same,glycan array binding signal (z-score),[6],-1.48
same,glycan array binding signal (z-score),[7],-0.245
same,glycan array binding signal (z-score),[8],1.64
same,glycan array binding signal (z-score),[9],1.39
same,glycan array binding signal (z-score),[10],-0.623
same,glycan array binding signal (z-score),[11],0.139
same,glycan array binding signal (z-score),[12],-1.36
same,glycan array binding signal (z-score),[13],0.163
same,glycan array binding signal (z-score),[14],2.17
same,glycan array binding signal (z-score),[15],-0.457
same,glycan array binding signal (z-score),[16],0.119
same,glycan array binding signal (z-score),[17],-0.893
same,glycan array binding signal (z-score),[18],0.431
same,glycan array binding signal (z-score),[19],-1.16
same,glycan array binding signal (z-score),[20],-0.513
same,glycan array binding signal (z-score),[21],0.867
same,glycan array binding signal (z-score),[22],0.485
same,glycan array binding signal (z-score),[23],-1.36
same,glycan array binding signal (z-score),[24],-1.42
same,glycan array binding signal (z-score),[25],0.351
same,glycan array binding signal (z-score),[26],1.69
same,glycan array binding signal (z-score),[27],-0.607
same,glycan array binding signal (z-score),[28],2.14
same,glycan array binding signal (z-score),[29],-0.341
same,glycan array binding signal (z-score),[30],-0.302
same,glycan array binding signal (z-score),[31],0.129
same,glycan array binding signal (z-score),[32],-1.37
same,glycan array binding signal (z-score),[33],-0.862
same,glycan array binding signal (z-score),[34],-0.26
same,glycan array binding signal (z-score),[35],0.064
same,glycan array binding signal (z-score),[36],-0.728
same,glycan array binding signal (z-score),[37],1.46
same,glycan array binding signal (z-score),[38],-0.957
same,glycan array binding signal (z-score),[39],-0.425
same,glycan array binding signal (z-score),[40],-0.648
same,glycan array binding signal (z-score),[41],0.573
same,glycan array binding signal (z-score),[42],-1.52
same,glycan array binding signal (z-score),[43],-0.299

# Exported tab-delimited: part of the list above
binder	measurement	setting	value
CALR truncated at D342 (Homo sapiens) (protein) EPAVYFKEQFLDGDGWTSRWIESKHKSDFGKFVLSSGKFYGDEEKDKGLQTSQDARFYALSASFEPFSNKGQTLVVQFTVKHEQNIDCGGGYVKLFPNSLDQTDMHGDSEYNIMFGPDICGPGTKKVHVIFNYKGKNVLINKDIRCKDDEFTHLYTLIVRPDNTYEVKIDNSQVESGSLEDDWDFLPPKKIKDPDASKPEDWDERAKIDDPTDSKPEDWDKPEHIPDPDAKKPEDWDEEMDGEWEPPVIQNPEYKGEWKPRQIDNPDYKGTWIHPEIDNPEYSPDPSIYAYDNFGVLGLDLWQVKSGTIFDNFLITNDEAYAEEFGNETWGVTKAAEKQMKD	glycan array binding signal (z-score)	[12]	-1.36
same	glycan array binding signal (z-score)	[13]	0.163
